In the supplement of paper PMC12350171:
Counter-ions that a name gives are not always drawn. This list holds what a sample rich in hits left over.

Columns and labels:
Details in all cases: 20 µM
[1] = tested on: Salmonella enterica typhimurium; test: growth AUC normalised to DMSO control (fraction of control); higher = less growth inhibition, active = hit call of the paper
Procedure, shortened: (§1)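 Pathogens passaged twice anaerobically were inoculated at a starting OD578 of 0.01 into pre-reduced mGAM plates with drug at 20 μM and 1% DMSO, sealed with breathable membranes. Haemophilus parainfluenzae medium was supplemented with hemin and NAD. OD578 was read hourly for 24 h, with three biological replicates. Growth-curve AUC was computed by the trapezoidal rule up to the exponential-to-stationary transition and normalised to DMSO controls on the same plate.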

Shigella flexneri = test: as above
Procedure, shortened: as §1

Vibrio cholerae = test: as above
Procedure, shortened: as §1

[2] = tested on: Yersinia pseudotuberculosis; test: as above
Procedure, shortened: as §1

P. vulgatus RND KO = test: growth AUC normalised to DMSO control (median) (fraction of control); higher = less growth inhibition, active = hit call of the paper
Procedure, shortened: (§2)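 For normalised area under the curve, growth curves were truncated at entry into stationary phase, integrated by the trapezoidal rule and divided against vehicle wells on the same plate. The curves came from strains passaged twice overnight without oxygen and then grown in mGAM in 96-well plates at a starting OD578 of 0.01. Each well held an approved-drug library compound at 20 μM with 1% DMSO, and OD578 was read hourly for 24 h in an anaerobic incubator. Values are medians of three biological replicates.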

P. vulgatus WT = test: as above
Procedure, shortened: as §2

[3] = tested on: S. enterica typhimurium WT; test: as above
Procedure, shortened: as §2

[4] = tested on: S. enterica typhimurium tolC KO; test: as above
Procedure, shortened: as §2

Measured: growth AUC normalised to DMSO control
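For growth AUC normalised to DMSO control (median) in this document: active when median AUC fell below 0.1.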

CN1[C@@H]2CC[C@H]1CC(OC(=O)C(O)c1ccccc1)C2 (mixture of isomers) [(R,S) Homatropine hydrobromide]
inactive: [1] 1.01 | Shigella flexneri 1 | Vibrio cholerae 1.01 | [2] 1.01 | P. vulgatus RND KO 0.998 | P. vulgatus WT 0.997 | [3] 1.02 | [4] 1.01

CCC(C)C(C(=O)OCC[N+](C)(CC)CC)c1ccccc1 (configuration not stated) [Valethamate bromide]
inactive: P. vulgatus RND KO 0.997 | P. vulgatus WT 0.987 | [3] 1.01 | [4] 0.989
